No constants are given. Whether binding was seen depends on the method and setting. A result given as binding can be weak or reduced; the word gives no strength. Where a sequence is shown, tags or fusion partners need not be part of it.
Molecular target: polymerized microtubules from purified bovine brain α/β-tubulin (bovine)
Assay: co-sedimentation; in vitro microtubule co-sedimentation: bovine brain α/β-tubulin (5 μM) and GST–CEP295 fragments in RG1 buffer (80 mM PIPES pH 6.8, 1 mM EGTA, 1 mM MgCl2, 1 mM GTP) with 15 μM Taxol, 37°C; 50% glycerol cushion; 300,000 g, 30 min, 37°C; SDS-PAGE, Coomassie Blue; both purified

- binding: binds
B1: GST–K6C (CEP295 residues 2472–2601) (domain or fragment, UniProt Q9C0D2 2472-2601)
chain: LTPVPGSLQEAFIKRKKSFMERSHQRQKEIRNKIHVSENSQIKTVKEKPSISSSVSRLKGVNKVRASFPEDRKTTQALRHQRGLRLYNQLAEVKQQKEEKTKQEAYAQNRARAKEFHKKTLEKLRAKNTC

Reference: paper PMC4958302
